Measurements reported in PubChem BioAssay AID1224830 (NIAID, 2016)
This is one part, drawn at random, of about 18,000 reagents tested. Over the whole deposit, about 2,900 (16%) are marked active. 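Calls are made per well; low scores hint the gene aids the LPS response, high scores that it dampens it.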 Entries without a mark were called inactive. Repeated entries: four replicate wells of each siRNA pool.

Aim: 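Host factors that control LPS-induced TNF expression in human macrophages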 (primary screen)
Cells: human THP-1 monocytic leukaemia cells, TNF dual-luciferase reporter clone, PMA-differentiated to macrophage-like cells
Reagent: siRNA pool against human genes, 50 nM
Duration: LPS for 4 h, given about 3 days after siRNA transfection
Challenge: bacterial LPS (TLR4 ligand), 10 ng/ml
Measured: 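TNF firefly reporter luminescence divided by renilla, normalised to the plate median, then turned into a robust z-score for each replicate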
Scale: TNF reporter robust z-score: higher = stronger TNF reporter response to LPS
Rule for the call: 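a well is active when its z-score exceeds 2.8 or falls below -1.5; control wells carry no call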

target gene | TNF reporter robust z-score
TEX29 (GeneID 121793) | 1.04
TEX29 (GeneID 121793) | -0.24
TEX29 (GeneID 121793) | 0.5
TEX29 (GeneID 121793) | 1.12
SLC38A4 (GeneID 55089) | 0
SLC38A4 (GeneID 55089) | 1.4
SLC38A4 (GeneID 55089) | 0.97
SLC38A4 (GeneID 55089) | 1.24
ZC3HAV1 (GeneID 56829) | 1.28
ZC3HAV1 (GeneID 56829) | -0.05
ZC3HAV1 (GeneID 56829) | -0.04
ZC3HAV1 (GeneID 56829) | 1.48
HMGB1 (GeneID 3146) | -0.55
HMGB1 (GeneID 3146) | -0.93
HMGB1 (GeneID 3146) | -1.04
HMGB1 (GeneID 3146) | 0.16
TRIM48 (GeneID 79097) | -0.25
TRIM48 (GeneID 79097) | 0.91
TRIM48 (GeneID 79097) | -1.22
TRIM48 (GeneID 79097) | -1.61 (active)
TCIM (GeneID 56892) | -0.88
TCIM (GeneID 56892) | -1.08
TCIM (GeneID 56892) | -0.82
TCIM (GeneID 56892) | -0.62
ADGRG6 (GeneID 57211) | -0.84
ADGRG6 (GeneID 57211) | -0.67
ADGRG6 (GeneID 57211) | -0.36
ADGRG6 (GeneID 57211) | -0.49
TXLNG (GeneID 55787) | -1.18
TXLNG (GeneID 55787) | -0.95
TXLNG (GeneID 55787) | -0.3
TXLNG (GeneID 55787) | 0.35
SHROOM4 (GeneID 57477) | -1.42
SHROOM4 (GeneID 57477) | -1
SHROOM4 (GeneID 57477) | -0.39
SHROOM4 (GeneID 57477) | -0.58
CD19 (GeneID 930) | 0.11
CD19 (GeneID 930) | -0.66
CD19 (GeneID 930) | -0.01
CD19 (GeneID 930) | 0.62
PCDHGB5 (GeneID 56101) | 0.38
PCDHGB5 (GeneID 56101) | 2.18
PCDHGB5 (GeneID 56101) | 1.1
PCDHGB5 (GeneID 56101) | 0.94
KATNB1 (GeneID 10300) | -1.15
KATNB1 (GeneID 10300) | 0.38
KATNB1 (GeneID 10300) | 0.94
KATNB1 (GeneID 10300) | -0.36
RSAD2 (GeneID 91543) | 0.45
RSAD2 (GeneID 91543) | 0.98
RSAD2 (GeneID 91543) | 1.41
RSAD2 (GeneID 91543) | 0.7
SEC14L1 (GeneID 6397) | -1.75 (active)
SEC14L1 (GeneID 6397) | -1.3
SEC14L1 (GeneID 6397) | -1.32
SEC14L1 (GeneID 6397) | -1.47
CFAP300 (GeneID 85016) | -1.16
CFAP300 (GeneID 85016) | -1.22
CFAP300 (GeneID 85016) | -0.53
CFAP300 (GeneID 85016) | -0.71
GUCA1A (GeneID 2978) | 0.51
GUCA1A (GeneID 2978) | -0.14
GUCA1A (GeneID 2978) | -0.24
GUCA1A (GeneID 2978) | 0.69
CACNA1E (GeneID 777) | -0.04
CACNA1E (GeneID 777) | 0.83
CACNA1E (GeneID 777) | 1.01
CACNA1E (GeneID 777) | 2.05
MYF5 (GeneID 4617) | -0.43
MYF5 (GeneID 4617) | 2.07
MYF5 (GeneID 4617) | 1.46
MYF5 (GeneID 4617) | -0.77
ELOVL6 (GeneID 79071) | 0.74
ELOVL6 (GeneID 79071) | 1.07
ELOVL6 (GeneID 79071) | -0.57
ELOVL6 (GeneID 79071) | 0.59
